This is an account of results in publication PMC9776721.

Sequences of proteins named here, by UniProt entry; tags and fusion partners are left off.
UniProt P00519: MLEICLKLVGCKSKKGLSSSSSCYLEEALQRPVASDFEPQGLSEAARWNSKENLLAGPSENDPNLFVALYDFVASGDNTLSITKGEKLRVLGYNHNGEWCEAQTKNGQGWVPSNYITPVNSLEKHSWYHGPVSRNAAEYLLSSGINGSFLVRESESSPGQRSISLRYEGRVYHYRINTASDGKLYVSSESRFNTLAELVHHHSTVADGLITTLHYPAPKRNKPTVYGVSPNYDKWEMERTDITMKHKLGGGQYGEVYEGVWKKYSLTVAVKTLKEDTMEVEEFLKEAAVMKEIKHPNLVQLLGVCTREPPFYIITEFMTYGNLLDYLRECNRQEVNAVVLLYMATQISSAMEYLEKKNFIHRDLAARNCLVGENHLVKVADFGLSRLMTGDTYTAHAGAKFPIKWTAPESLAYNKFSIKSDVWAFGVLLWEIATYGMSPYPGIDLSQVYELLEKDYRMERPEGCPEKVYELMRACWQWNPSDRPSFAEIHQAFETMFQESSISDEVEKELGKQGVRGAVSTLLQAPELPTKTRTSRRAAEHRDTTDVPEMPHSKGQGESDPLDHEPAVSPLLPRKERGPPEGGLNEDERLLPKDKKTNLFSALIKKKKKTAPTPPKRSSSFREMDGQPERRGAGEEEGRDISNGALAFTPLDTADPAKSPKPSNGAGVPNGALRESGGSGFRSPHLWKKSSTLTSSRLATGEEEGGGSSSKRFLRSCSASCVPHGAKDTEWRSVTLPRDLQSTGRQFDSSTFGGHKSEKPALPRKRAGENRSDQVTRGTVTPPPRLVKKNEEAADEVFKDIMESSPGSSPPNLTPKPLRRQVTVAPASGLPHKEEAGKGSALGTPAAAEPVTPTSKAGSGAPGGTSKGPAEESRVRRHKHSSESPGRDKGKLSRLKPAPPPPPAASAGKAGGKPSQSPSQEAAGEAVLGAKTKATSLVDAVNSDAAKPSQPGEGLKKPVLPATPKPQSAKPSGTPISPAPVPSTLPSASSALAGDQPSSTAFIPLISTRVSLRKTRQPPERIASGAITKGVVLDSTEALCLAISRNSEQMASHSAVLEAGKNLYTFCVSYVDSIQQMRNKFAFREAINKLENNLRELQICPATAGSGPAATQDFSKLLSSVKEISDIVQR

This experiment deals with Flag-tagged c-Abl (UniProt P00519). As to the kind of experiment: co-IP; SH-SY5Y cells co-transfected with Flag-c-Abl and EGFP-TDP-43; cell extracts 24 h after transfection, anti-Flag (M2) antibody at 4 °C, protein G-agarose beads overnight, washed five times with lysis buffer, immunoblotting.

Results are given in words; binding and its absence hold for the method and conditions named. Binding seen in cells or lysates may run through a third protein. Some entries that bind do so weakly or less than the wild type.

For the substance “EGFP-tagged TDP-43 (from UniProt Q13148-1 1-414)”, the binding result was “binds”.
